Measurements: patent publication US20230364057A1, “BACTERIAL DNA GYRASE INHIBITORS AND METHODS OF USE THEREOF” (THE FLORIDA INTERNATIONAL UNIVERSITY BOARD OF TRUSTEES, priority 2022, published 2023)

System: DNA
Assay: DNA intercalation / DNA binding

For CSC1SC2C(=O)N(C)C(C(C)C)C(=O)OCC(NC(=O)c3cnc4ccccc4n3)C(=O)NC(C)C(=O)N(C)C1C(=O)N(C)C(C(C)C)C(=O)OCC(NC(=O)c1cnc3ccccc3n1)C(=O)NC(C)C(=O)N2C (stereo not shown) [Compound 258], the DNA intercalator was “DNA intercalators”.
